Consider six molecules from paper PMC6386760.

This experiment addresses OsbHLH96, yeast two-hybrid fusion (rice (Oryza sativa)) (UniProt B7F0D7). The experiment in a line: two-hybrid; Gal4 system (pGBKT7 / pGADT7); library screen with pGBKT7-OsHLH61 in AH109 and pairwise tests; growth on SD-LTHA (without Leu, Trp, His, Ade).

No constants are given. Whether binding was seen depends on the method and setting. Binding can be weak; no strength is given. Sequences can lack the tags named with a protein.

B1: OsJAZ12, yeast two-hybrid fusion (protein, UniProt Q7XEZ1 1-171)
chain: MAAAGSSSRFAVTCGLLSQYMRERQQPQPPVTVLEAVAEEEEEEDARTMQLFPPRAAAADGVATPSAGTAPLTIFYDGRMVVVDDVPVEKAAELMRLAGSACSPPQPAHAAALPEMPIARKASLQRFLQKRKHRITTTSEPYKKAAVASPAPEKSFAVAPVKDEPATWLGL
Take B1: the binding entry was “no binding”.

B2: OsJAZ9, yeast two-hybrid fusion (protein, UniProt Q8GSI0 1-179)
chain: MASTDPMTRRFAVACGVLSQYVKANSSQPSTAAPVAQGVSGLMAAAAAAAAAPVVQEPGCEVDGGGQQFTIFYAGKVVVIDRCTPAMAAELMRFASAAQGGGGAPEAPPALVDMPIARKASLKRFLAKRKATPASARSSYVVRAAAAEEEQPPAKKAKAAVERREDWLALGSLGHMHSR
As to B2, the binding result is given as “no binding”.

B3: OsJAZ3 (Jasmonate Zim-Domain3), yeast two-hybrid fusion (protein, UniProt Q6ZJU3 1-427)
chain: MERDFLGAIWRKEEAAGKPEEHSDYRGGGGGASAAMQWQFPATKVGAASSAFMSFRSSAAAAREEDPKEAAVFDRFSLSGFRPPPRPSPGDAFDGAAAMKQRQFGFNGRQQYAAAAQHGHREQGVDSYGVAAPHHFPSPSPSPRHPVPFGHANPMLRVHSLPNVAGGSPYRNQSFSVGNSVAGSTVGVYGGPRDLQNPKVTQMTIFYDGLVNVFDNIPVEKAQELMLLASRASIPSPPSAARKSDSPISAAAKLTVPEALPARQIVVQKPEASVPLVSGVSNPITIVSQAVTLPKSFSSSNDSAGPKSGGLPLAVTPLSQASPSQPIPVATTNASAIMPRAVPQARKASLARFLEKRKERVSSVAPYPSSKSPLESSDTIGSPSTPSKSSCTDITPSTNNCEDSLCLGQPRNISFSSQEPPSTKLQI
Regarding B3, the binding entry is on record as “binds”.

B4: OsJAZ1, yeast two-hybrid fusion (protein, UniProt Q7XPM8 1-216)
chain: MDLLEKKNIKKGGEVEEEVARKGEERKEEEVVVEEKSHQQQQQQGEEELVGLSLAGGRPKVFPMSSPPPNPSQLTIFYGGSVCVYDSVPPEKAQAIMLIAAAAAAAASATKSNAAIAVKPPVMPAANATQAAVSPVLTRSLSLQSTSVATGQPQVAADPSSICKLQADLPIARRHSLQRFLEKRRDRLVSKAPYPTKSSEGMEASGMEVTAEGKAQ
As for B4, the binding result is “no binding”.

B5: OsJAZ11, yeast two-hybrid fusion (protein, UniProt Q8GRS2 1-209)
chain: MAGSSEQQLVANAAATTVAGNGSRFAVTCGLLRQYMKEHSGSNGGGGFLPAVTAMSLMTGGADAEEEAPEVRKTMELFPQQAGTLKDTQERKEITEKAQLTIFYGGSVVVFDDFPAEKAGELMKLAGSRDSTAAAAVSDAGAAAGQPCLPDMPIARKVSLQRFLEKRKNRIVVAEPLPESEKKEAESSKRAKKDDGGASWLQVNPTLSL
Turning to B5, the binding entry is given as “no binding”.

B6: OsJAZ7, yeast two-hybrid fusion (protein, UniProt Q8H395 1-244)
chain: MAASARPVGVGGERATSFAMACSLLSRYVRQNGAAAAELGLGIRGEGEAPRAAPATMSLLPGEAERKKETMELFPQSAGFGQQDAITADSAADAREQEPEKRQLTIFYGGKVLVFNDFPADKAKGLMQLASKGSPVAPQNAAAPAPAAVTDNTKAPMAVPAPVSSLPTAQADAQKPARANASDMPIARKASLHRFLEKRKDRLNAKTPYQASPSDATPVKKEPESQPWLGLGPNAVVKPIERGQ
For B6, the binding entry is reported as “no binding”.
